For four molecules, binding results are on record in US20110263483A1.

Chains of the proteins cited; added tags and fusions are not shown. Lines headed by an entry give the natural chain unless they say otherwise; changes in a name come on top.
UniProt Q62219: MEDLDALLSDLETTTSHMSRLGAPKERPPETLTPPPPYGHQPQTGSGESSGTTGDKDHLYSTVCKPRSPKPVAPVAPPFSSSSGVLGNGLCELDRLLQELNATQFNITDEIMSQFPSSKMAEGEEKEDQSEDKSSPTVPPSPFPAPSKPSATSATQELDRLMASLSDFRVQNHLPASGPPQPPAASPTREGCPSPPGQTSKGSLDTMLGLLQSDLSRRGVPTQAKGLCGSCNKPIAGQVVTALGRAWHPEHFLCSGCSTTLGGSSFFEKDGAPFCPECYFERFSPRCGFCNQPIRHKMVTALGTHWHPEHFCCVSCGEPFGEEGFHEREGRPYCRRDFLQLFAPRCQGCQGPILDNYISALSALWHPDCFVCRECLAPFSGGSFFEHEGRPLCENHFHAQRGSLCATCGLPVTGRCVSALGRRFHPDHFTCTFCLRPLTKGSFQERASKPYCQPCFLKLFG
UniProt Q8VI36: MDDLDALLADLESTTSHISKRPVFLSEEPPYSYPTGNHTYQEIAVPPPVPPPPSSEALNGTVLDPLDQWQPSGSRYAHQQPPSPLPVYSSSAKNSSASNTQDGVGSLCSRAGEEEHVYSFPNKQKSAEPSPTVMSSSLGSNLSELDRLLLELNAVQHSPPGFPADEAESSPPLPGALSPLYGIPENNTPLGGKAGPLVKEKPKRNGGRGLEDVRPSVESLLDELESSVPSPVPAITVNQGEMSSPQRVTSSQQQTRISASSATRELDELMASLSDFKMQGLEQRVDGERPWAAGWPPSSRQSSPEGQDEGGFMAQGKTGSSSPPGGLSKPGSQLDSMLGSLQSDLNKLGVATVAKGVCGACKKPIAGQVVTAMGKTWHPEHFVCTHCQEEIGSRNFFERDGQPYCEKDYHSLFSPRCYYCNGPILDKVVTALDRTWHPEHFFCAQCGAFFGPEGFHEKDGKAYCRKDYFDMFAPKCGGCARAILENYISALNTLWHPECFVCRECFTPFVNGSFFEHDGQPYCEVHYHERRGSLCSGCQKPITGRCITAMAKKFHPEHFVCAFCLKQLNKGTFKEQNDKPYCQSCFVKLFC

Assay [1] has as its target T1, Robo4 cytoplasmic tail-HA (UniProt Q8C310).
T1 sequence (looked up): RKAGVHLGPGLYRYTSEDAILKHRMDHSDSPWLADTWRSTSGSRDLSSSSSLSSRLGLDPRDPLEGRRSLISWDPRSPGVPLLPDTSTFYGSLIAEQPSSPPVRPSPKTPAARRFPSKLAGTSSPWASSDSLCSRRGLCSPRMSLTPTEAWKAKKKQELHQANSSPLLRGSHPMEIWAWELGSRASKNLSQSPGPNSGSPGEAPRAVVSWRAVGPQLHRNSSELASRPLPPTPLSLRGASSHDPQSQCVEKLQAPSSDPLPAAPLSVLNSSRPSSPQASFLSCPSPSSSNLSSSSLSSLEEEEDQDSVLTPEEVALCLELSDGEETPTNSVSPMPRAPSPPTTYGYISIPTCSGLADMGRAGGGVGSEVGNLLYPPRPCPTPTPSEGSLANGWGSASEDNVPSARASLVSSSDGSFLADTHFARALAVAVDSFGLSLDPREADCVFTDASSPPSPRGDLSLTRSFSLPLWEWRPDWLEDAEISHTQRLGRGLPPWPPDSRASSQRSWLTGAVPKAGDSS
In words: co-immunoprecipitation with HA antibodies, western blot with V5 antibodies (FIG. 3A).

Assay [2] deals with T1, Robo4 cytoplasmic tail-HA. In words: co-immunoprecipitation with HA antibodies, western blot with V5 antibodies.
Assay [3] addresses T1, Robo4 cytoplasmic tail-HA. In words: co-immunoprecipitation from co-transfected HEK 293 cells.
The target in assay [4] is T1, Robo4 cytoplasmic tail-HA. Description: co-immunoprecipitation with HA antibodies, western blot with V5 antibodies (FIG. 3C).
The target in assay [5] is T2, N-terminal soluble ectodomain of Robo4 tagged with the HA epitope (NRobo4-HA) (UniProt Q8C310).
T2 sequence (looked up): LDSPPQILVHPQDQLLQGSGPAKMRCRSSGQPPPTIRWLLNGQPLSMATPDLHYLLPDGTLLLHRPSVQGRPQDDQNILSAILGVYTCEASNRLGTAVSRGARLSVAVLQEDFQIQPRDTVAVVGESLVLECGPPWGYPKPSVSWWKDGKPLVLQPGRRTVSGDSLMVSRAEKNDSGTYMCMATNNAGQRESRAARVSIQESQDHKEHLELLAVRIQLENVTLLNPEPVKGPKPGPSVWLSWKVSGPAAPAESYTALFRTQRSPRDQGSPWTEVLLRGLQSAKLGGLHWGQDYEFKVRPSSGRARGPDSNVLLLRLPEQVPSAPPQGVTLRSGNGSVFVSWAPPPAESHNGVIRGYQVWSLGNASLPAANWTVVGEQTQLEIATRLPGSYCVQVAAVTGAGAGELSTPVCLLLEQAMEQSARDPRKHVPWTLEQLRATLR
In words: immunoprecipitation of combined conditioned media with anti-HA, western blot with anti-myc (FIG. 17B).

The target in assay [6] is T3, full length Robo4-HA (UniProt Q8C310).
T3 sequence (looked up): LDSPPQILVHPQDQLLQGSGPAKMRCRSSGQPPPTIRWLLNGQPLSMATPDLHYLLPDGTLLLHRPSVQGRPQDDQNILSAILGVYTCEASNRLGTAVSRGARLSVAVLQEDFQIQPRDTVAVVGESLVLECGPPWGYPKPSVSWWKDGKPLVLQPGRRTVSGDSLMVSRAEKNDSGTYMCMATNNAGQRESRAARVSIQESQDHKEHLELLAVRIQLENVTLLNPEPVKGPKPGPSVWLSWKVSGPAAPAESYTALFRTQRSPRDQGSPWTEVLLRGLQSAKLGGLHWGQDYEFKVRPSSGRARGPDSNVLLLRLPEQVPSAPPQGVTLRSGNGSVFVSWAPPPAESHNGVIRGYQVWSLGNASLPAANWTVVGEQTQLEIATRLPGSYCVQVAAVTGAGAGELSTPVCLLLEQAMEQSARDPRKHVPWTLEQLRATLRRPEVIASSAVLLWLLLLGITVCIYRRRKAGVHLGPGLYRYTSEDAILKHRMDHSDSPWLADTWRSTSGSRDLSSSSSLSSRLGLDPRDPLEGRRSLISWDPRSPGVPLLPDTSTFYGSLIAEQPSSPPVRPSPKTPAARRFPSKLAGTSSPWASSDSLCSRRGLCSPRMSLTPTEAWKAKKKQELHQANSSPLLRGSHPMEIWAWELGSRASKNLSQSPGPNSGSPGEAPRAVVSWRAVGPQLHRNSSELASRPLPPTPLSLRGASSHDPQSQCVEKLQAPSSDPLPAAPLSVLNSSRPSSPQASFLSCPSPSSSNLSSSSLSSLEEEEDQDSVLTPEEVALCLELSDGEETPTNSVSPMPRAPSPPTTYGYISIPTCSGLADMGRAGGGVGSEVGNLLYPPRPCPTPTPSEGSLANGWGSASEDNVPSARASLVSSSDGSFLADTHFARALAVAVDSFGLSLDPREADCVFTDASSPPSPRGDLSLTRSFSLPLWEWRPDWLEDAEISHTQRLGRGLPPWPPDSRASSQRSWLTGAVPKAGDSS
Description: immunoprecipitation of combined HEK cell lysates with anti-HA, western blot with anti-myc (FIG. 17A).

Assay [7] addresses T3, full length Robo4-HA. Description: immunofluorescence of Slit-myc conditioned medium on Robo4-HEK cells, anti-myc and Alexa 594 anti-mouse antibody.
The target of assay [8] is T3, full length Robo4-HA. Description: immunoprecipitation of combined HEK cell lysates with anti-HA, western blot with anti-myc.
In assay [9] the target is T3, full length Robo4-HA. Description: immunofluorescence of Slit-myc conditioned medium on Robo4-HEK cells (FIG. 17C-F).
For assay [10], the target named is T2, N-terminal soluble ectodomain of Robo4 tagged with the HA epitope (NRobo4-HA). In words: immunoprecipitation of combined conditioned media with anti-HA, western blot with anti-myc.

These are yes or no findings as the source states them, for the method shown. For some assays here: In cells and extracts the contact can be indirect. Some entries that bind do so weakly or less than the wild type. Tags and fused reporters may be left off the sequences shown.

Consider “Hic-5-V5 (murine Hic-5 in pcDNA3-V5) (from UniProt Q62219 1-461)”, for which the binding entry in [1] and in assay [2] was “binds” throughout.
“paxillin-Lim (from UniProt Q8VI36 356-591)”: the binding entry in [3] was “binds”.
With “paxillin-V5 (murine paxillin in pcDNA3-V5) (from UniProt Q8VI36 1-591)”, the binding entry in [4] and in assay [2] was “binds” each time.

B1: Slit tagged with a myc epitope (Slit-myc) (ligand, UniProt O94813 31-1529, looked up, not shown: small tags and cut ends)
chain: QCSCSGSTVDCHGLALRSVPRNIPRNTERLDLNGNNITRITKTDFAGLRHLRVLQLMENKISTIERGAFQDLKELERLRLNRNHLQLFPELLFLGTAKLYRLDLSENQIQAIPRKAFRGAVDIKNLQLDYNQISCIEDGAFRALRDLEVLTLNNNNITRLSVASFNHMPKLRTFRLHSNNLYCDCHLAWLSDWLRQRPRVGLYTQCMGPSHLRGHNVAEVQKREFVCSGHQSFMAPSCSVLHCPAACTCSNNIVDCRGKGLTEIPTNLPETITEIRLEQNTIKVIPPGAFSPYKKLRRIDLSNNQISELAPDAFQGLRSLNSLVLYGNKITELPKSLFEGLFSLQLLLLNANKINCLRVDAFQDLHNLNLLSLYDNKLQTIAKGTFSPLRAIQTMHLAQNPFICDCHLKWLADYLHTNPIETSGARCTSPRRLANKRIGQIKSKKFRCSAKEQYFIPGTEDYRSKLSGDCFADLACPEKCRCEGTTVDCSNQKLNKIPEHIPQYTAELRLNNNEFTVLEATGIFKKLPQLRKINFSNNKITDIEEGAFEGASGVNEILLTSNRLENVQHKMFKGLESLKTLMLRSNRITCVGNDSFIGLSSVRLLSLYDNQITTVAPGAFDTLHSLSTLNLLANPFNCNCYLAWLGEWLRKKRIVTGNPRCQKPYFLKEIPIQDVAIQDFTCDDGNDDNSCSPLSRCPTECTCLDTVVRCSNKGLKVLPKGIPRDVTELYLDGNQFTLVPKELSNYKHLTLIDLSNNRISTLSNQSFSNMTQLLTLILSYNRLRCIPPRTFDGLKSLRLLSLHGNDISVVPEGAFNDLSALSHLAIGANPLYCDCNMQWLSDWVKSEYKEPGIARCAGPGEMADKLLLTTPSKKFTCQGPVDVNILAKCNPCLSNPCKNDGTCNSDPVDFYRCTCPYGFKGQDCDVPIHACISNPCKHGGTCHLKEGEEDGFWCICADGFEGENCEVNVDDCEDNDCENNSTCVDGINNYTCLCPPEYTGELCEEKLDFCAQDLNPCQHDSKCILTPKGFKCDCTPGYVGEHCDIDFDDCQDNKCKNGAHCTDAVNGYTCICPEGYSGLFCEFSPPMVLPRTSPCDNFDCQNGAQCIVRINEPICQCLPGYQGEKCEKLVSVNFINKESYLQIPSAKVRPQTNITLQIATDEDSGILLYKGDKDHIAVELYRGRVRASYDTGSHPASAIYSVETINDGNFHIVELLALDQSLSLSVDGGNPKIITNLSKQSTLNFDSPLYVGGMPGKSNVASLRQAPGQNGTSFHGCIRNLYINSELQDFQKVPMQTGILPGCEPCHKKVCAHGTCQPSSQAGFTCECQEGWMGPLCDQRTNDPCLGNKCVHGTCLPINAFSYSCKCLEGHGGVLCDEEEDLFNPCQAIKCKHGKCRLSGLGQPYCECSSGYTGDSCDREISCRGERIRDYYQKQQGYAACQTTKKVSRLECRGGCAGGQCCGPLRSKRRKYSFECTDGSSFVDEVEKVVKCGCTRCVS
As to B1, the binding entry in assay [5], in assay [6], in assay [7], in [8], in assay [9] and in assay [10] was “binds” each time.
